Assay results taken from PubChem BioAssay AID1794845 (National Center for Advancing Translational Sciences (NCATS), 2023).
In all, about 6,900 compounds went through this assay and fewer than 10 were called active. The call rests on the fitted dose curve; in most records, active means well fitted curve in the direction sought with a large enough effect; inconclusive means small, poorly fitted or top-dose-only effect, or another doubt; inactive means no such curve, though single readings can be large or run the other way. The list shows a part of the results.

Amino acid sequences for entries named in this document (tags omitted). A change or cut given only in a name is not applied to a line headed by its entry.
UniProt C7C422: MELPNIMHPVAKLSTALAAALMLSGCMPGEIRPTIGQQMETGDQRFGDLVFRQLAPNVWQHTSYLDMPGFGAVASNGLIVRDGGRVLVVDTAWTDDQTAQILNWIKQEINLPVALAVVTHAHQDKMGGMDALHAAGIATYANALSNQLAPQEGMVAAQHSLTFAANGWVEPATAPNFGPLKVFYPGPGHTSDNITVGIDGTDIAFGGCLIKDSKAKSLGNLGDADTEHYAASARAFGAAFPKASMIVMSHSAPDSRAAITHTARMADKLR

Target: Metallo-beta-lactamase type 2 (Klebsiella pneumoniae) (UniProt C7C422)
Experiment: qHTS to identify inhibitors of the New Delhi Metallo-beta-lactamase (NDM): primary screen against the NCATS Gemini Collection; further: % of control where 0% means no effect
Settings: NDM-1 enzyme, meropenem hydrolysis, absorbance 300 nm; at 38.4 µM (top of the series) unless noted
Summary of the method: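 Meropenem hydrolysis (50 uM final) by 2 nM NDM-1 read as 300 nm absorbance after 30 min, following >30 min compound–enzyme preincubation in HEPES pH 7.0 with 1 uM ZnSO4 and 0.01% Tween20.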

Activity % (negative = inhibition), inactive:
N#Cc1ccccc1-c1cc2c(ccn2Cc2ccncc2)c(N2CCOCC2)n1 0.932% [at 57.5 µM], COCCOCC1(CNC(=O)C2CCOCC2)C[C@@H](O)[C@@H](O)C1 (stereo partly specified) -2.8% [at 57.5 µM], CC(C)CNC1(Cc2cc(CN3CCOCC3)on2)COC1 -11.4% [at 57.5 µM], CC(=O)Nc1ccc(C2(C(=O)NCc3ccc(F)cc3)CCC2)cc1 -2.48%, CC(C)c1nc(CNC(=O)c2ccc(N(C)Cc3ccccn3)nc2)no1 11.4%, CN1CC[C@H]2CN(S(=O)(=O)c3ccc(NC(N)=O)cc3)C[C@H]21 11.1%, Cc1noc(C)c1-c1ccc2c(n1)CN(CCOc1ccccc1)C(=O)CO2 -2.06% [at 57.5 µM], CC1CCCN1c1ccc(C(=O)N2CCC(Oc3cccnc3)CC2)cn1 (stereo unspecified) 17.8%, CCN1CCN(C(=O)C2Cn3cccc3C(=O)N2C)CC1 (stereo unspecified) -0.664%, CCN1CCC2(CCC1=O)CN(Cc1nnc(-c3cccnc3)o1)CCN2C (stereo unspecified) 0.354%, O=C(C1CCCC1)N1CCCC(C(=O)N2CCC(c3nc4ccncc4[nH]3)C2)C1 (stereo unspecified) 7.86%, O=S(=O)(c1ccccc1)N1CCC(F)(c2nc(Cc3ccccc3)no2)CC1 4.09%, OC[C@@H]1O[C@H](CNC2CCOCC2)[C@H](N2CCCC2)[C@@H]1O 6.29% [at 57.5 µM], CCNC(=O)[C@@H]1C[C@H](NC(=O)c2ccc[nH]2)CN1C(=O)Cc1cc(C)no1 -10.3%, CCCCc1ncc(-c2c(-c3ccccc3)ncn2CCCn2ccnc2)[nH]1 71.4%, COCC(=O)N[C@@H]1CN(C2CCOCC2)CC[C@@H]1CO 3.44%, CC(=O)N1CCC(C(=O)NC2CCc3n[nH]c(=O)n3CC2)CC1 (stereo unspecified) 10.5%, O=C1CCN(C(=O)c2nccc3ccccc23)CCOCCN1 12.8%, N#Cc1cccnc1-c1ccc(C(=O)N2CCC(N[S+](=O)([O-])c3cccc(C(F)(F)F)c3)CC2)cc1 -0.821%, O=[S+]1([O-])NC2(CCCN(Cc3ccc(F)cc3)C2)CNc2ccccc21 (stereo unspecified) 0.296%, COc1cccc(CCC(=O)NC2CCc3nn(CC4CC4)c(=O)n3CC2)c1 (stereo unspecified) -8.02%, COc1ccc(Cl)cc1C(=O)N(C)C1CCc2nn(C)c(=O)n2CC1 (stereo unspecified) -3.75%, O=C(NC[C@H]1O[C@@H](CO)[C@@H](O)[C@H]1N1CCOCC1)c1cccc(F)c1 1.65% [at 57.5 µM], CNC(=O)N1CCC(C2CCN(C(=O)CCc3ccccc3OC)C2)CC1 (stereo unspecified) 3.25%, COc1cccc(-c2ccc(C(=O)NCCNC(=O)C3CCCC3)cc2)c1 -3.57% [at 57.5 µM], C[S+](=O)([O-])NC1CCN(c2nc3ncccc3o2)C1 (stereo unspecified) 21.1% [at 57.5 µM], O=C(NC1CCN(Cc2ccccc2)CC1)C1CCCN(c2cnc3nccnc3c2)C1 (stereo unspecified) 0.66%, COc1ccc(CN(C)CC2CCN(C)C2(C)C)cc1C(=O)O (stereo unspecified) -3.59%, O=C(Cc1c[nH]c2ccccc12)N1CCc2c(nc(-c3ccc(F)cc3)[nH]c2=O)C1 5.73%, O=C(NCc1cccnc1)c1cc(CN2CCC(Cc3ccccc3)CC2)on1 -1.98%, C=CCCC(CN1CCSCC1)Oc1ncc(CC)cn1 (stereo unspecified) -1.25%, O=C(N[C@H](c1ccccn1)C1CC(O)C1)c1ccc(Cn2cccn2)o1 (stereo partly specified) -0.64%, COc1cc2c(cc1CN1CCC3(CCCNC3)C1)OCCCO2 (stereo unspecified) 1.14%, CCOC(=O)C1(Cc2ccc(F)cc2)CCCN(C(=O)c2cc3nc(C)cc(C)n3n2)C1 (stereo unspecified) -0.462%, COc1ccc(CCC(=O)N2CCC3(CC2)CC(Cc2nc(-c4cnccn4)no2)CCO3)cc1 (stereo unspecified) 18.5%, O=C(Nc1ccc2c(c1)OCCO2)N[C@@H]1C[C@H](CO)[C@@H](O)[C@H]1O 2.35% [at 57.5 µM], COc1cccc(CCC(=O)N2CCC(OCC3CC3)C2)c1 (stereo unspecified) 22%, O=C(NCc1cccc(Cl)c1)c1ccc2oc(-c3cccnc3)nc2c1 5.42%, Cn1cccc1CN1CC(Oc2ccc(F)cc2F)C1 18.2% [at 57.5 µM], O=C(c1ccsc1)N1CCC2(CC1)CN(C1CCC1)CC2CO (stereo unspecified) 4.41%, CC(C)S(=O)(=O)N1CCC(N(Cc2cccnc2)C2CCOCC2)CC1 5.29%, COCCNc1ncccc1-c1noc([C@@H]2CCCN2C2CCN(C)CC2)n1 1.31% [at 57.5 µM], c1ccc(CO[C@H]2COCCN(c3nc4ccccc4o3)C2)cc1 -0.878% [at 57.5 µM], CCN1C(=O)C2(CCN(S(=O)(=O)c3c(C)nn(C)c3C)CC2)c2ccccc21 -4.02%, Cc1ccc2nc(C(=O)N3CCCC3c3cc(C(C)C)on3)cn2c1 (stereo unspecified) 1.05%, Cc1ccccc1CC(=O)N1CC(F)(F)C[C@H]1c1nnc(C2CC2)o1 0.677%, COc1ccc(-c2nccn2CC(CO)Cc2ccsc2)cc1O (stereo unspecified) 0.419%, CCCc1sc(NC(=O)C[C@H]2NC(=O)c3ccccc3NC2=O)nc1C(=O)OC 1.05%, Cc1nn2c(c1-c1ccccc1-c1ccccc1)N(C(=O)c1cnccn1)CCC2 6.58% [at 57.5 µM], Cc1ccc(S(=O)(=O)Cc2noc([C@@H]3C[C@@H](O)CN3Cc3cccc(C#N)c3)n2)cc1 -0.158%, Cc1ccsc1CN1CCc2nc(N3CCOCC3)[nH]c(=O)c2CC1 5.27%, OC[C@@H]1CNC[C@H]1C1CCN(Cc2ccsc2)CC1 0.543%, CC(C)N1CCC(N2C[C@@H](CO)[C@H](c3nc(C4CC4)no3)C2)CC1 30.8%, Cc1noc([C@@H]2CN(Cc3cccnc3)C[C@H]2CO)n1 49.8%, COC(=O)c1c(NC(C)=O)c2cc(NC3CCCC(C)(C)C3)cnc2n1CC1CCCO1 (stereo unspecified) 10.9%, CN1CCN(C(=O)[C@@H]2C[C@H](C(=O)O)CN(Cc3cccc(F)c3)C2)CC1 2.4%, Cc1ccc(NC(=O)N2CCC(c3nc(CCOCC4CC4)no3)C2)cc1C (stereo unspecified) 6.06%, Cc1ccc(-c2cc(C(=O)NCc3cccs3)nn3cnnc23)cc1 0.191%, Cc1cc(C(=O)N2CCC3(CC2)CC(N(Cc2ccc(F)cc2)C2CC2)CCO3)n(C)n1 (stereo unspecified) -2.31%, Cn1cnc(S(=O)(=O)N2CC(c3nc(-c4ccncc4)no3)C2)c1 1.06%, COCC1CN(C2CCC2)CC12CCN(Cc1scnc1C)CC2 (stereo unspecified) -0.607%, Cc1ccc(CN2CCC(CNc3cc(C4CC(O)C4)ncn3)CC2)o1 (stereo unspecified) 31.6%, CNC(=O)[C@@H]1C[C@H](Oc2ccccc2)CN1S(=O)(=O)c1ccc2c(c1)CCC2 29.7%, O=C(NC1CC(=O)N(CCCc2ccccc2)C1)c1ccoc1 (stereo unspecified) 3.75%, COc1ccc(C(=O)NCCn2c(C)cnc2-c2ccccc2)cn1 17.5%, Cc1cccc(-c2cn[nH]c2C2CCN(C(=O)c3cc(=O)[nH]c(=O)[nH]3)CC2)c1 7.1%, C[S+](=O)([O-])NCc1nnc2n1C(C(=O)NCc1ccc(Cl)cc1)CC2 (stereo unspecified) -1.43%, CN(Cc1cnn(-c2ccc(F)cc2)c1)c1cc(C2CC(O)C2)ncn1 (stereo unspecified) -6.16%, O=C(NCC(F)F)c1cc(-c2cccs2)c2cccn2n1 16.5% [at 57.5 µM], CC(C)CN1CCN(C(=O)C2CCc3ncc(-c4ccc(F)cc4)n3C2)CC1 (stereo unspecified) 9.46%, CC(C)c1nc(-c2ccc(C(=O)N[C@@H]3COCC[C@@H]3OCC3CC3)cc2)no1 1.86%, Cc1ccc(S(=O)(=O)N2CCN(C3CCN(CCC(C)C)C3=O)CC2)cc1F (stereo unspecified) -2.41%, COCCN1CCCC1c1nc(C2CN(C(=O)c3ccccc3OC)C2)no1 (stereo unspecified) 25.2%, Cc1cc(CN2C[C@@H](COCC3CC3)[C@H](c3ccccn3)C2)n(C)n1 -0.74%, Cc1ccc(C)c(NC(=O)Cn2ccn3nc4c(c3c2=O)CCCCC4)c1 -7.69%, CCNC(=O)N1CCC(Oc2ncccc2C(=O)N2CCCCC2)C1 (stereo unspecified) -4.74%, O=C(c1nc(-c2ccsc2)c2cnccn12)N1CCCC1 -1.41% [at 57.5 µM], CC(C(=O)N1CCc2onc(-c3ccc(F)c(F)c3)c2C1)n1ccnc1 (stereo unspecified) 15.2%, Cc1cnccc1CN(C)C(=O)c1cc(COc2ccc(-n3cncn3)cc2)on1 0.341%, O=C(c1ccc2c(c1)OCCO2)N1CCC(Cn2cc(CCO)nn2)CC1 -2.21%, CNC(=O)Nc1cccn2nc(-c3ccccc3)nc12 7.02%, Cc1ccc(C)c(OCc2cc(C(=O)N3CCC(N4CCSCC4)CC3)no2)c1 -0.985%, O=C([C@H](O)c1ccccc1)N1CCc2onc(-c3cccc4ccccc34)c2C1 3.32%, N#Cc1cccc(S(=O)(=O)N[C@@H]2CCOC[C@H]2OCc2cscn2)c1 2.28%, CCNc1ccnc(N2C[C@H]3CN(C(=O)N(C)C)C[C@@]3(C(=O)O)C2)n1 -0.749%, COc1ccc(-n2nc3n(c2=O)CCN([S+](=O)([O-])c2c(C)noc2C)C3)cc1 7.23%
